Measurements from PubChem BioAssay (EPA / NIEHS).
Inconclusive results, whose numbers are uncertain, are shown with a selection of clear calls. Potencies beside an inconclusive call are fits to weak or partial responses and may not hold up. Activity calls are given as the source filed them. The calls were made as follows: active = hit-call score of the fitted dose curve at least 0.9, where 1 is the maximum; inconclusive = response in the unintended direction; inactive = score below 0.9.

Chains of the proteins cited; added tags and fusions are not shown. Lines headed by an entry give the natural chain unless they say otherwise; changes in a name come on top.
UniProt Q14994: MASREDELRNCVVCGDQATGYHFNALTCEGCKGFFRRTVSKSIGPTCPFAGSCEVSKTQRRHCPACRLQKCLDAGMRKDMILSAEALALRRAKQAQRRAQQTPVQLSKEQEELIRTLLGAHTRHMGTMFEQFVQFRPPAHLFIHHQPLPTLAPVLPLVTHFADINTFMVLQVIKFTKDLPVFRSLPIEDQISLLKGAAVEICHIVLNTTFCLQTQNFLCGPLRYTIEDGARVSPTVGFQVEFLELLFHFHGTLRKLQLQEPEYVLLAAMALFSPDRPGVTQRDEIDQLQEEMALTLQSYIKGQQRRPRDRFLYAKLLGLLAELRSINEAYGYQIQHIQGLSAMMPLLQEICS
UniProt Q01717: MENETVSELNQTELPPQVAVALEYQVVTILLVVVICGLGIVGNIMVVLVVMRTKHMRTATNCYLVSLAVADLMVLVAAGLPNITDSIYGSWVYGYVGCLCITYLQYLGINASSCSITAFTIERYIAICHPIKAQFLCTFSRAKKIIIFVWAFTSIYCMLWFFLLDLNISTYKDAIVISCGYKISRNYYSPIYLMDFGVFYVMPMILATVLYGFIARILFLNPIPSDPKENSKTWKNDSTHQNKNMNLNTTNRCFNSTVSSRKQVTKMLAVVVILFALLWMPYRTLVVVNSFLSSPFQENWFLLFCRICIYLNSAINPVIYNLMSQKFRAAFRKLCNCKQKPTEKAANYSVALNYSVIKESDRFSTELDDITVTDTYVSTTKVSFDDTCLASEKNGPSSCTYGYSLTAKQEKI

The compounds below were run against human Constitutive Androstane Receptor (CAR), NR1I3 (gene 9970) (UniProt Q14994) (assay: NVS_NR_hCAR_Agonist: NovaScreen (NVS) Nuclear Receptor Binding Assay for human Constitutive Androstane Receptor Agonism (CAR) (AID 2283328)).
Method in brief: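 Cell-free TR-FRET binding readout with extracted human CAR protein, read 1 h after dosing. Gain of signal fitted against DMSO baseline. Single-concentration duplicates at 25 uM, then concentration-response up to 50 uM for actives.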
In the case of `Cc1nc(-c2ccccn2)ncc1C(=O)Nn1cc(C)c2cc(F)ccc21`, the outcome is reported as “inactive”. In the case of `CC(C)(C)c1ccc(O)c(C(C)(C)C)c1`, the AC50 is reported as inconclusive: 25 µM. With `CCCCCCCCCCCCCO` the outcome was “inactive”.

What follows are compounds tested against rat Thyrotropin Releasing Hormone Receptor (TRH), Trhr (gene 25570) (UniProt Q01717) (assay: NVS_GPCR_rTRH: NovaScreen (NVS) G Protein-Coupled Receptor Assay for rat Thyrotropin Releasing Hormone Receptor (TRH) (AID 2283329);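 also: hit means lower bound tracer signal versus DMSO baseline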).
Method in brief: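 Competitive radioligand binding on rat forebrain membrane preparations, with filtration and scintillation readout after 4 h. Primary testing in duplicate at 25 uM; actives confirmed in concentration-response. DMSO defined baseline.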
For `CC1CC(O)CC(C)(C)C1` (stereo not drawn), the AC50 was inconclusive: 0.385 µM. In the case of `O=C(O)/C=C/C(=O)O`, the AC50 is reported as inconclusive: 0.91 µM. In the case of `CCO[Si](CC)(OCC)OCC`, the outcome is reported as “inactive”. For `O=S(=O)(O)c1ccc(N=Nc2c(O)ccc3ccccc23)cc1`, the AC50 was inconclusive: 0.55 µM. `COC(=O)c1cccc(C(=O)OC)c1` was tested, and the AC50 was inconclusive: 0.523 µM. `Clc1ccc(C(c2ccccc2Cl)C(Cl)Cl)cc1` (stereo not drawn) was tested, and the AC50 was inconclusive: 25 µM. In the case of `COCCOCCOCCO`, the AC50 is reported as inconclusive: 25 µM. `CCOC(=O)c1ccc(N)cc1` was tested, and the AC50 was inconclusive: 5.18 µM. `CC1(C)C(=O)N(Br)C(=O)N1Cl` was tested, and the AC50 was inconclusive: 0.166 µM. `Nc1ccc2cc(S(=O)(=O)O)cc(O)c2c1N=Nc1ccccc1C(F)(F)F` was tested, and the AC50 was inconclusive: 25 µM. `Cc1cc2nc3c(=O)[nH]c(=O)nc-3n(C[C@H](O)[C@H](O)[C@H](O)CO)c2cc1C` was tested, and the AC50 was inconclusive: 14.7 µM. With `COc1ccccc1O` the AC50 was inconclusive: 25.1 µM. With `CCCCC(CC)COCCO` (stereo not drawn) the AC50 was inconclusive: 0.621 µM. With `CCCCCCCCCCCCN1CCCCCC1=O` the AC50 was inconclusive: 25 µM. In the case of `CCCCCCCCC=CCCCCCCCC1=NCCN1CCO`, the outcome is reported as “inactive”. For `C#CC(O)C(CC)CCCC` (stereo not drawn), the outcome was “inactive”. In the case of `C=CC(O)CCCCC` (stereo not drawn), the AC50 is reported as inconclusive: 25 µM. With `CS(=O)(=O)c1ccc([C@@H](C[C@H]2CCC(=O)C2)C(=O)Nc2cnccn2)cc1Cl` the outcome was “inactive”. With `CCC(C)C1CCCCC1=O` (stereo not drawn) the AC50 was inconclusive: 6.99 µM. With `c1ccc(Nc2cccc3ccccc23)cc1` the AC50 was inconclusive: 25 µM.
